In publication PMC8876908 one finds binding data, which are given here for 1 substance.

No constants are given. Whether binding was seen depends on the method and setting. In cells and extracts the contact can be indirect. A result given as binding can be weak or reduced; the word gives no strength.

Assay [1] addresses T1, JNK-interacting protein-2 (JIP2) (rat (endogenous in H9C2)) (UniProt G3V9M2).
T1 sequence: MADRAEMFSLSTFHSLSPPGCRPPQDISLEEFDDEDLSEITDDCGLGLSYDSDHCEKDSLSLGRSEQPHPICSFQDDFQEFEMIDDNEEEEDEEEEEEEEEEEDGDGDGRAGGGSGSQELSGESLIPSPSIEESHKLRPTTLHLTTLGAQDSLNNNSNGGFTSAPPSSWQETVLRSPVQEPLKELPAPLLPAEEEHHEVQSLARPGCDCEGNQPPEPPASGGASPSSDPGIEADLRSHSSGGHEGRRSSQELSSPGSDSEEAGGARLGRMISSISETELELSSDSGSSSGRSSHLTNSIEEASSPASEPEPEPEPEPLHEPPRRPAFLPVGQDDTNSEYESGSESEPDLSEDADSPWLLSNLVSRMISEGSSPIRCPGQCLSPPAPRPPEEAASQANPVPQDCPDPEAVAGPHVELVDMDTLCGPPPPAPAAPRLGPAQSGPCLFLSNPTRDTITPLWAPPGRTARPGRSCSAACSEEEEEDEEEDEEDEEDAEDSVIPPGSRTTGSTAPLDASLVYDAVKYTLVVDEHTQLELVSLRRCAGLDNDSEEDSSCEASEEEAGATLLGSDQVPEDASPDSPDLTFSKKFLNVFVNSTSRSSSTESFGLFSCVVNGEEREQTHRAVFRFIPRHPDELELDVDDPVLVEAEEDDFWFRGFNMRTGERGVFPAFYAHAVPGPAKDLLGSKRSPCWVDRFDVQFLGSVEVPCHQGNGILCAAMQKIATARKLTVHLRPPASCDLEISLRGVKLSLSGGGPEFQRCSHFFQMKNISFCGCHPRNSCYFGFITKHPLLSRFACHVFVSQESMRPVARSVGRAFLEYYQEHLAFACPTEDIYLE
Briefly: co-IP; cell lysates in Co-IP lysis buffer with protease inhibitor, 2 ug primary antibody or IgG, protein A/G beads overnight at 4°C, three washes, Western blotting. In general terms: Immunoblotting shows a protein as a band on a membrane.

The target of assay [2] is T2, Lysosomal associated membrane protein 1 (LAMP1) (UniProt P14562).
T2 sequence: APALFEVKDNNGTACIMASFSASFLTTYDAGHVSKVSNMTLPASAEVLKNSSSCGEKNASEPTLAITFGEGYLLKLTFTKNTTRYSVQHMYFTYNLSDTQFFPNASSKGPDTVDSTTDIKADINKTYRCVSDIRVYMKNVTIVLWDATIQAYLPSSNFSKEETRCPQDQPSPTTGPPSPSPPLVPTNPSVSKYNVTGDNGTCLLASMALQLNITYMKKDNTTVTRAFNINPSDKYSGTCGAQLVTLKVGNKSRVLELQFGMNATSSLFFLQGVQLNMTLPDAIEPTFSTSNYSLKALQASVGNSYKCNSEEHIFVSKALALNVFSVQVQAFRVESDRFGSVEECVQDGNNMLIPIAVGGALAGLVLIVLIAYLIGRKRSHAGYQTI
The assay is described as above.

Regarding “C1q/tumor necrosis factor-related protein 3 (CTRP3)”, the binding entry in assay [1] and in assay [2] was “binds” in each case.
